Reference: patent US9872840B2, “Effect of garcinol in delaying the progression of diabetic nephropathy” (Delhi Institute of Pharmaceutical Sciences and Research, priority 2013, dated 2018)

Experiment: Body weight of STZ diabetic rats after 8 weeks treatment
Format: in vivo, rat
Conditions: once daily for 8 weeks, garcinol 200 mg/kg, olmesartan 6 mg/kg/day, glimepiride 1 mg/kg/day, mean ± S.E.M., eight animals

SMILES	Body weight, after treatment [g]
CCC1=C(C)CN(C(=O)NCCc2ccc(S(=O)(=O)NC(=O)N[C@H]3CC[C@H](C)CC3)cc2)C1=O [Glimepiride, glimepiride]	208.3 ± 3.1
CCCc1nc(C(C)(C)O)c(C(=O)OCc2oc(=O)oc2C)n1Cc1ccc(-c2ccccc2-c2nnn[nH]2)cc1 [Olmesartan, olmesartan medoxomil]	216.7 ± 4.77
